# Taken from: PubChem BioAssay AID743454 (Peter MacCallum Cancer Centre, 2014)
# Aim: 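Genes whose loss kills vorinostat-resistant colon cancer cells under vorinostat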 (primary screen)
# Cell system: human HCT116-VR colon cancer cells, selected for vorinostat resistance
# Reagent: siRNA pool against human genes, 40 nM siRNA pool
# Time to read-out: vorinostat for 24 h, read-out about 72 h after transfection
# Conditions: vorinostat at 2.5 µM final
# Measurement: 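Cell viability by CellTiter-Fluor and caspase 3/7 activity by luminescence, each scaled to mock wells per plate, duplicates averaged, then robust z-scored over all plates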
# Direction: viability robust z-score: higher = more viable cells than screen typical; caspase robust z-score: higher = more caspase 3/7 activity than screen typical
# Hit rule: 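a knock-down is a hit when classed RV1 or RV2 for lowered viability, or CA1 or CA2 for caspase activation; those lethal without drug were dropped; hits were retested singly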
# The whole screen tested about 18,000 reagents; this is a random part of them. In the full data, 450 (2.5%) were called active. 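Single biological run; no consistent viability z cut-off exists, so the class columns, not z-scores, define the calls.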
target,viability hit class,caspase hit class,viability robust z-score,caspase robust z-score,outcome
ADGRG3 (GeneID 222487),no change,no change,-0.36,0.66,inactive
HCAR1 (GeneID 27198),no change,no change,-0.14,1.12,inactive
SLC2A14 (GeneID 144195),no change,no change,1.05,1.58,inactive
CYLC2 (GeneID 1539),no change,no change,1.05,-0.36,inactive
IGFBP4 (GeneID 3487),no change,no change,0.82,1.29,inactive
RNF151 (GeneID 146310),no change,no change,-1.23,3.62,inactive
ARFGEF2 (GeneID 10564),no change,no change,0.13,-0.92,inactive
PRDM9 (GeneID 56979),no change,no change,-0.85,0.82,inactive
TOX4 (GeneID 9878),no change,CA1 (caspase activation),0.34,7.19,active
PSRC1 (GeneID 84722),no change,no change,-0.19,0.84,inactive

Single entries from above:
For “viability hit class”, ARFGEF2 (GeneID 10564) has no change
Result of PRDM9 (GeneID 56979) in “caspase robust z-score”: 0.82
For “viability robust z-score”, RNF151 (GeneID 146310) is entered as -1.23

Additional results follow.
target,viability hit class,caspase hit class,viability robust z-score,caspase robust z-score,outcome
TINAGL1 (GeneID 64129),no change,no change,-0.4,0.48,inactive
AQP12A (GeneID 375318),no change,no change,-0.98,1.42,inactive
FECH (GeneID 2235),no change,no change,-1.05,-1.32,inactive
CD27 (GeneID 939),no change,no change,0.04,0.34,inactive
RAPSN (GeneID 5913),no change,no change,0.65,-0.48,inactive
H2BC12 (GeneID 85236),no change,no change,0.74,-0.52,inactive
USHBP1 (GeneID 83878),no change,no change,0.15,0.62,inactive
LDAF1 (GeneID 57146),no change,no change,0.14,-0.43,inactive
NKX2-5 (GeneID 1482),no change,no change,-1.09,2.36,inactive
HOXA13 (GeneID 3209),no change,no change,-0.42,-0.28,inactive
TIGIT (GeneID 201633),no change,no change,1.21,-0.31,inactive
GALNT17 (GeneID 64409),no change,no change,0.06,2.84,inactive
MAP1LC3C (GeneID 440738),no change,no change,0.7,-0.14,inactive
